According to US20090305962A1 (Amgen, published 2009):
Changes are numbered by the printed parent chain. Each block holds one binder with its values, some of them ahead of it.

Target: T1, human IL-6 (human, UniProt P05231 30-212)
T1 construct: the protein used was bought recombinant human IL-6 (R&D Systems), in part biotinylated; also called rhIL-6; hIL-6
T1 sequence: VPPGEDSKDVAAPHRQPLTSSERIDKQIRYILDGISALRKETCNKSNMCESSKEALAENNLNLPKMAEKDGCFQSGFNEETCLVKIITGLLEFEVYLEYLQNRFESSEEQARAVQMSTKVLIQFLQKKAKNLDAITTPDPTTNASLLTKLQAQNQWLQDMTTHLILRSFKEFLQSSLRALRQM
Assay: panning and screening on IL-6

B1: SEQ ID NO 654 (designed binder)
chain: CLPSQFQCRNGRCIPLPWLCDGDNDCEDDSDETNCTPRTCLPDQFQCGSGYCLPQAWVCDGENDCEDGSDETNCPART
binding result: binds

B2: SEQ ID NO 649 (designed binder)
chain: CLPSQFQCRNGRCIPLPWLCDGDNDCEDDSDETNCTPRTCLPSQFQCGSGYCISQRWVCDGENDCEDSSDEANCAGSVPT
binding result: binds

B3: SEQ ID NO 659 (designed binder)
chain: B2 chain with L41V
binding result: binds

B4: SEQ ID NO 810 (designed binder)
chain: CGSNEFTCSNGRCIPPTLLCDGVNDCGDDSDETGCATPVRTCLPSQFQCGSGYCISQRWVCDGENDCEDGSDEANCAGSVPTCPSDEFRCRNGRCIPRAWRCDGVNDCADNSDEEDCTEHT
binding result: binds

B5: SEQ ID NO 813 (designed binder)
chain: CPSSQFRCSSGRCVPADWLCDGVNDCADNSDETGCPTRTCLPSQFQCGSGYCISQRWVCDGENDCEDSSDEANCAGSVPTCPPGQFTCNNGRCVPPTWLCDGEDDCQDDSDEKNCKAPT
binding result: binds

B6: SEQ ID NO 698 (designed binder)
chain: CVPSQFQCGSGYCISQRWVCDGENDCEDGSDEANCAGSVPTCPSDEFRCRNGRCIPRAWRCDGVNDCADNSDEEDCTEHT
binding result: binds

B7: SEQ ID NO 678 (designed binder)
chain: CLPSQFQCGSGYCISQRWVCDGENDCEDSSDEANCAGSVPTCRSSQFQCGNGRCISVHWVCDGDDDCEDSSDESSAHCKPRT
binding result: binds

B8: SEQ ID NO 637 (designed binder)
chain: CLPSQFQCGSGYCISQRWVCDGENDCEDSSDEANCAGSVPTCRPGQFQCGSGYCIPRPWRCDGDNDCEDDSDEKGCARSEPT
binding result: binds

B9: SEQ ID NO 812 (designed binder)
chain: CPSSQFRCSSGRCVPADWLCDGVNDCADNSDETGCPTRTCLPSQFQCGSGYCISQRWVCDGENDCEDGSDEANCAGSVPTCPSDEFRCRNGRCIPPGWLCDGVDDCVDDSDEEGCRTPART
binding result: binds

B10: SEQ ID NO 795 (designed binder)
chain: CPSSQFRCSSGRCVPADWLCDGVNDCADNSDETGCPTRTCLPSQFQCGSGYCISQRWVCDGENDCEDSSDEANCAGSVPTCPSDEFRCRNGRCIPRAWRCDGVNDCADNSDEEDCTEHT
binding result: binds

B11: SEQ ID NO 798 (designed binder)
chain: B10 chain with S4D, Q5E, R7T, S9D, P15S, A16L, D17N, A27G, T33A
binding result: binds

B12: SEQ ID NO 799 (designed binder)
chain: B10 chain with S4D, Q5E, R7T, S9D, P15S, A16L, D17N, A27G, T33A, S68G
binding result: binds

B13: SEQ ID NO 797 (designed binder)
chain: B10 chain with A27G, T33A, S68G
binding result: binds

B14: SEQ ID NO 796 (designed binder)
chain: B10 chain with P36A
binding result: binds

B15: SEQ ID NO 811 (designed binder)
chain: B10 chain with P2R, S3A, S4D, Q5E, R7Q, S9G, S68G
binding result: binds

B16: SEQ ID NO 755 (designed binder)
chain: CRASEFRCRSYERCISPRWVCDGVNDCGDNSDETGCPPRTCLPDQFQCGSGYCLPQRWVCDGVDDCEDSSDEKGCTPHT
binding result: binds

B17: SEQ ID NO 786 (designed binder)
chain: CLPNQFTCDSGNCVPQALGCDGDNDCEDNSDESPALCAAPAHTCQANEFTCSSGNCLSPALLCDGVDDCGDNSDETYCAGPAPTCLPSQFRCGSGCCFSQRWVCDGKNDCEDSSDEANCAGSLPT
binding result: binds

B18: SEQ ID NO 657 (designed binder)
chain: CAPNQFQCGSGYCVPAAWVCDGENDCEDNSDESSALCQERTCLSSQFQCDNGNCVPQQWVCDGDNDCLDDSDETSCSAPASEPPGSL
binding result: binds

B19: SEQ ID NO 729 (designed binder)
chain: CAPDQFKCGNGNCLPLPWVCDGDNDCGDNSDEANCPQHTCLPSQFQCGSGYCISQRWVCDGENDCEDSSDEANCAGSVPT
binding result: binds

B20: SEQ ID NO 706 (designed binder)
chain: CQSGQFPCGNGNCIPRPLRCDGVDDCPDGSDEPPECPQPTCLPSQFQCGSGYCISRRWVCDGENDCEDSSDEKGCTPHT
binding result: binds

B21: SEQ ID NO 644 (designed binder)
chain: CAPNQFQCGSGYCVPAAWVCDGENDCEDNSDESSALCQERTCLPSQFQCGSGYCISQRWVCDGENDCEDSSDEANCAGSVPT
binding result: binds

B22: SEQ ID NO 646 (designed binder)
chain: B21 chain with L43V
binding result: binds

B23: SEQ ID NO 639 (designed binder)
chain: CLPSQFQCGSGYCISQRWVCDGENDCEDSSDEANCAGSVPTCRASQFQCGSGYCIPRPWLCDGVNDCEDGSDEADCQTRT
binding result: binds

B24: SEQ ID NO 652 (designed binder)
chain: CPPDQFQCGSGYCLPQAWVCDGENDCEDGSDETNCPARTCLSSEFTCGNGNCIPRPWVCDGDNDCVDDSDEKGCPEPT
binding result: binds

B25: SEQ ID NO 693 (designed binder)
chain: CVPSQFQCGSGYCISQRWVCDGENDCEDSSDEANCAGSVPTCPSNEFPCESGHCVPLTWRCDGEDDCPDSSDEANCGRPGPGATSVPAA
binding result: binds

Second part, the binder after the results:

binding result: binds
B26: SEQ ID NO 728 (designed binder)
chain: CPAGQFTCGSGKCVSGGLLCDGDNDCQDGSDEAGCATRTCLPSQFQCGSGYCISQRWVCDGENDCEDSSDEANCAGSVPT

binding result: binds
B27: SEQ ID NO 640 (designed binder)
chain: CVPSQFQCGSGYCISQRWVCDGENDCEDSSDEANCAGSVPTCLPDQFQCGSGYCLPQAWVCDGENDCEDGSDETNCPART

binding result: binds
B28: SEQ ID NO 756 (designed binder)
chain: CPLDQFTCGNGSCLPANLLCDGVNDCEDNSDEAGCPTRTCLPDQFQCGSGYCLPQRWVCDGVDDCEDSSDEKGCTPHM

binding result: binds
B29: SEQ ID NO 684 (designed binder)
chain: CLPSQFQCGSGYCISQRWVCDGENDCEDSSDEANCAGSVPTCRPSEYPCGNGRCVPQPLRCDGVNDCEDSSDEANCTPHT

binding result: binds
B30: SEQ ID NO 696 (designed binder)
chain: CLPSQFQCGSGYCISQRWVCDGENDCEDSSDEANCAGSVPTCPSGEFRCGNGSCLPAGWVCDGVDDCVDGSDEKGCQTPT

binding result: binds
B31: SEQ ID NO 775 (designed binder)
chain: CQPFDEFECRNGSCIPLPWRCDGVNDCLDDSDEEDCTGSAPTCAPSQFQCGSGYCIPQRWVCDGVDDCEDSSDEKGCTPHT

binding result: binds
B32: SEQ ID NO 662 (designed binder)
chain: CVPSQFQCGSGYCISQRWVCDGENDCEDSSDEANCAGSVPTCLSSEFTCGNGNCIPRPWVCDGDNDCVDDSDEKGCPEPT

binding result: binds
B33: SEQ ID NO 736 (designed binder)
chain: CAPSQFPCSSNDICVPRRWRCDGVDDCGDSSDEASCGTSVRTCLPSQFQCGSGYCISQRWVCDGENDCEDSSDEANCAGSVPT

binding result: binds
B34: SEQ ID NO 788 (designed binder)
chain: CGASQFQCGSGYCISQRWVCDGENDCEDSSDEANCAGSVPTCLPSEFQCRDSKICLSADWLCDGVNDCADNSDEEGCPPPTCLPDQFQCGSGYCLPQAWVCDGENDCEDGSDETNCPART

binding result: binds
B35: SEQ ID NO 666 (designed binder)
chain: CAPNQFQCGSGYCVPAAWVCDGENDCEDNSDESLAHCQAHTCVSSEFRCSSGQCIPPPWRCDGVDDCADNSDEAGCTPPT

binding result: binds
B36: SEQ ID NO 721 (designed binder)
chain: CLPSQFQCGSGYCISQRWVCDGENDCEDGSDEESCTGPGHTCLPSQFQCGSGYCISQRWVCDGENDCEDSSDEANCAGSVPT

binding result: binds
B37: SEQ ID NO 676 (designed binder)
chain: CRSNQFQCGSGYCIPVKWLCDGENDCEDGSDESLAHCQAHTCVASQFRCDNGRCLSEPLGCDGVNDCPDNSDEEDCTTAEHT

binding result: binds
B38: SEQ ID NO 634 (designed binder)
chain: CPSSQFQCGSGYCISPAWVCDGVNDCEDGSDEKSCAPHTCLPDQFQCGSGYCLPQAWVCDGENDCEDGSDETNCPART

binding result: binds
B39: SEQ ID NO 783 (designed binder)
chain: CLPDQFPCENGKCLPVNLVCDGDDDCPDGSDESEVCAGAVRTCLPDQFRCGNGQCIPLDWVCDGVNDCADNSDETGCPTRTCLPSQFQCGSGWCISQRWVCDGENDCEDSSDEANCAGSVPT

binding result: binds
B40: SEQ ID NO 771 (designed binder)
chain: CLPSQFQCGSGYCISQRWVCDGENDCEDSSDEANCAGSVPTCGGSEFTCGNGRCLPQHWFCDGENDCLDDSDEAGCPAPT

binding result: binds
B41: SEQ ID NO 692 (designed binder)
chain: CQSDEFTCRDSNKCVSRDWLCDGEDDCPDGSDETSCAGSERTCPSSQFQCSSGWCIPEDWRCDGVPDCGDGSDEASCPPHT
